Taken from: PubChem BioAssay AID743121 (NCATS, 2013)
The deposit covers about 26,000 reagents; below is an unselected part. 167 of all reagents (0.63%) were called active. 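Calls are per gene from RSA p-values that are not deposited; an individual active-marked siRNA can sensitise only weakly.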 The numbers tell different reagents against one gene apart. Further read-outs or replicates are left out here.

Assay: 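Knock-downs that sensitise breast cancer cells to camptothecin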 (primary screen)
Cell system: MDA-MB-231 cells, a human breast cancer line
Reagents: single siRNA against human genes, 20 nM siRNA (0.8 pmol per well)
Time to read-out: 120 h (drug added 48 h after transfection, read 72 h later)
Challenge: camptothecin 20 nM (about EC30) for 72 h; vehicle 0.1% DMSO in parallel plates
Measurement: 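Cell viability by ATP luminescence (CellTiter-Glo) as % of non-targeting siRNA wells, and the log2 ratio of viability without drug over viability with camptothecin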
Direction: log2 vehicle/camptothecin viability: higher = stronger sensitisation to camptothecin; viability with camptothecin: higher = more viable cells
Call rule: 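Active genes have an RSA gene-level p-value below 0.001, computed from the ratios of their separate siRNAs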

PTPRM #1 showed log2 vehicle/camptothecin viability -0.393; viability with camptothecin (% of control) = 103; inactive.
For PTPRM #2, the entry reads log2 vehicle/camptothecin viability -0.186; viability with camptothecin (% of control) = 78.6; inactive.
PTPRM #3 gave log2 vehicle/camptothecin viability 0.268; viability with camptothecin (% of control) = 63; inactive.
Depletion of PTPRM #4 gave: log2 vehicle/camptothecin viability -0.177; viability with camptothecin (% of control) = 93.6; inactive.
Knock-down of BRPF3 #1 gave: log2 vehicle/camptothecin viability -0.371; viability with camptothecin (% of control) = 118; inactive.
Depletion of BRPF3 #2 resulted in: log2 vehicle/camptothecin viability 0.0133; viability with camptothecin (% of control) = 90; inactive.
After knock-down of BRPF3 #3, the screen gave log2 vehicle/camptothecin viability -0.433; viability with camptothecin (% of control) = 94; inactive.
BRPF3 #4 scored log2 vehicle/camptothecin viability -0.84; viability with camptothecin (% of control) = 26; inactive.
Depletion of TSSC4 #1 resulted in: log2 vehicle/camptothecin viability -0.345; viability with camptothecin (% of control) = 59.9; inactive.
Knock-down of TSSC4 #2 resulted in: log2 vehicle/camptothecin viability 0.292; viability with camptothecin (% of control) = 21.9; inactive.
With knock-down of TSSC4 #3, the screen gave log2 vehicle/camptothecin viability 0.0939; viability with camptothecin (% of control) = 18.2; inactive.
TAS2R5 #1 showed log2 vehicle/camptothecin viability -0.189; viability with camptothecin (% of control) = 106; inactive.
With knock-down of TAS2R5 #2 the results were log2 vehicle/camptothecin viability -0.407; viability with camptothecin (% of control) = 79.9; inactive.
With knock-down of TAS2R5 #3, the screen gave log2 vehicle/camptothecin viability -0.724; viability with camptothecin (% of control) = 111; inactive.
Against TAS2R5 #4, the values are log2 vehicle/camptothecin viability 0.296; viability with camptothecin (% of control) = 63.2; inactive.
SIM2 #1 gave log2 vehicle/camptothecin viability -0.0673; viability with camptothecin (% of control) = 85.9; inactive.
For SIM2 #2 the deposit lists log2 vehicle/camptothecin viability -0.275; viability with camptothecin (% of control) = 63.7; inactive.
SIM2 #3 scored log2 vehicle/camptothecin viability 0.105; viability with camptothecin (% of control) = 78.6; inactive.
Depletion of SIM2 #4 resulted in: log2 vehicle/camptothecin viability -0.331; viability with camptothecin (% of control) = 26.7; inactive.
For PEX1 #1, the values are log2 vehicle/camptothecin viability -0.446; viability with camptothecin (% of control) = 88.4; inactive.
Knock-down of PEX1 #2 came out at: log2 vehicle/camptothecin viability 0.816; viability with camptothecin (% of control) = 31.8; inactive.
Against PEX1 #3, the entry reads log2 vehicle/camptothecin viability 0.335; viability with camptothecin (% of control) = 71.5; inactive.
With knock-down of PEX1 #4, the record shows log2 vehicle/camptothecin viability -0.284; viability with camptothecin (% of control) = 32.2; inactive.
For GPR84 #1 the deposit lists log2 vehicle/camptothecin viability -0.247; viability with camptothecin (% of control) = 75.5; inactive.
GPR84 #2 showed log2 vehicle/camptothecin viability -0.109; viability with camptothecin (% of control) = 102; inactive.
Depletion of GPR84 #3 came out at: log2 vehicle/camptothecin viability -0.256; viability with camptothecin (% of control) = 68; inactive.
With knock-down of GPR84 #4 the results were log2 vehicle/camptothecin viability 0.0146; viability with camptothecin (% of control) = 68.3; inactive.
Silencing of SLC2A1 #1 came out at: log2 vehicle/camptothecin viability -0.155; viability with camptothecin (% of control) = 127; inactive.
SLC2A1 #2 gave log2 vehicle/camptothecin viability -0.656; viability with camptothecin (% of control) = 92.3; inactive.
SLC2A1 #3 scored log2 vehicle/camptothecin viability 0.151; viability with camptothecin (% of control) = 57; inactive.
After knock-down of GPR143 #1 the results were log2 vehicle/camptothecin viability 0.404; viability with camptothecin (% of control) = 24.4; inactive.
For GPR143 #2, the values are log2 vehicle/camptothecin viability -0.437; viability with camptothecin (% of control) = 43.6; inactive.
With knock-down of GPR143 #3, the record shows log2 vehicle/camptothecin viability 0.4; viability with camptothecin (% of control) = 53.4; inactive.
Against GPR143 #4, the entry reads log2 vehicle/camptothecin viability -0.31; viability with camptothecin (% of control) = 96.9; inactive.
With knock-down of GNG3 #1, the screen gave log2 vehicle/camptothecin viability -0.156; viability with camptothecin (% of control) = 84.5; inactive.
With knock-down of GNG3 #2, the screen gave log2 vehicle/camptothecin viability -0.172; viability with camptothecin (% of control) = 92.9; inactive.
For GNG3 #3, the values are log2 vehicle/camptothecin viability -0.299; viability with camptothecin (% of control) = 77.7; inactive.
GNG3 #4 gave log2 vehicle/camptothecin viability 0.121; viability with camptothecin (% of control) = 85.1; inactive.

A run of entries from the list above, for reference:
TSSC4 #1 — log2 vehicle/camptothecin viability = -0.345; viability with camptothecin (% of control) = 59.9; outcome = inactive
TSSC4 #2 — log2 vehicle/camptothecin viability = 0.292; viability with camptothecin (% of control) = 21.9; outcome = inactive
TSSC4 #3 — log2 vehicle/camptothecin viability = 0.0939; viability with camptothecin (% of control) = 18.2; outcome = inactive
TAS2R5 #1 — log2 vehicle/camptothecin viability = -0.189; viability with camptothecin (% of control) = 106; outcome = inactive
TAS2R5 #2 — log2 vehicle/camptothecin viability = -0.407; viability with camptothecin (% of control) = 79.9; outcome = inactive
TAS2R5 #3 — log2 vehicle/camptothecin viability = -0.724; viability with camptothecin (% of control) = 111; outcome = inactive
